These are yes or no findings as the source states them, for the method shown.

The target in experiment [1] is T1, MEDIATOR21 (Arabidopsis thaliana (Col-0 cDNA)) (UniProt C0LU16).
T1 sequence: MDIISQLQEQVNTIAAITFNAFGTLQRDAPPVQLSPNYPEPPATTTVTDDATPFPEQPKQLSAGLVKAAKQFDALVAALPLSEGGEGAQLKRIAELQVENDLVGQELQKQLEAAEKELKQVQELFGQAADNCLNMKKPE
The experiment can be described thus: two-hybrid; GAL4 DNA-binding domain baits (pDEST32) and GAL4 activation domain preys (pDEST22) co-transformed into S. cerevisiae MaV203; serial dilutions plated on SC-Leu-Trp and on SC-Leu-Trp-His with 12.5 mM 3-aminotriazole; repeated with separate transformations.

The target in experiment [2] is T2, MEDIATOR8 (Arabidopsis thaliana (Col-0 cDNA)) (UniProt Q4V3C1).
T2 sequence: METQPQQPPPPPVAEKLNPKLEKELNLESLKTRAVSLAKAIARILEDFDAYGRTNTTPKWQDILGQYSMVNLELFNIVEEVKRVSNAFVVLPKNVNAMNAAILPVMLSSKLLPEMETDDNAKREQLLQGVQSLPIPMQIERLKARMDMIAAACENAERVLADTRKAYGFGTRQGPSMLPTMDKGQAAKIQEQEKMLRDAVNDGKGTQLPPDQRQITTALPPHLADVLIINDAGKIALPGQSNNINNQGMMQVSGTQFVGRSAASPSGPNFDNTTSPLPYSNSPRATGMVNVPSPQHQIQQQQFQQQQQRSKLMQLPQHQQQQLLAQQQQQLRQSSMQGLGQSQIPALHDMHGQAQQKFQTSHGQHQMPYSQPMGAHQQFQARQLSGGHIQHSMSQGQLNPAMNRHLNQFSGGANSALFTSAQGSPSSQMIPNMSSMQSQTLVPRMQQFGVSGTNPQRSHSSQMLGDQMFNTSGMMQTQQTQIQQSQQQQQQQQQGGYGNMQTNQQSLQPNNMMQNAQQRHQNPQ
The description is as above.

B1: MEDIATOR18 (protein, UniProt Q9SJZ6 1-219)
chain: MSMECVVQGIIETQHVEALEILLQGLCGVQRERLRVHELCLRSGPNLGVVSSEVRLLCDLDQPEPTWTVKHVGGAMRGAGADQISVLVRNMIESKVSKNALRMFYALGYKLDHELLKVGFAFHFQRTAHISVSVSSVNKMPKVHAIDEAVPVTPGMQIVDVTAPATSENYSEVAAAVSSFCEFLAPLVHLSKPSISTGVVPTAAAAAASLMSDGGGTTL
Regarding B1, the binding result in experiment [1] and in experiment [2] was “no binding” each time.

Source of the values: PMC5404846.
